From US7205326B2, “Aniline derivatives, their manufacture and use as pharmaceutical agents” (Hoffmann-La Roche Inc., priority 2003, dated 2007)
Some of these results come from one statement about several compounds together. At least one compound was matched to its structure with a doubt left.

Tested on: HCT116 cells
Experiment: HCT116 cell proliferation MTT assay
Format: cell-based
Details: HCT116 human colon carcinoma cells, MTT assay after 5 days (120 h) incubation, compound 3 uM to 0.15 nM
Protocol: HCT116 cells (human colon carcinoma cell line) were cultivated in RPMI 1640, 2.5% FCS, 2 mM Glutamine, 100 u/ml Penicillin, 100 ug/ml Streptomycin. For the assay the cells were seeded in 384 well plates, 1000 cells per well, in the same medium
The next day compounds (dissolved 10 mM in DMSO) were added in various concentrations ranging from 3 uM to 0.15 nM. After 5 days the MTT assay was done mainly according to the instructions of the manufacturer (Cell proliferation kit I, MTT, from Roche Molecular Biochemicals). In brief: MTT labeling reagent was added to a final concentration of 0.5 mg/ml, added and incubated for 4 hrs at 37° C., 5% CO2. During this incubation time purple formazan crystals are formed. After addition of the solubilization solution (20% SDS in 0.02 M HCl) the plates were incubated overnight at 37° C., 5% CO2. After careful mixing plates were measured in Victor 2 (scanning multiwell spectrophotometer, Wallac) at 550 nm.
A decrease in number of living cells results in a decrease in the total metabolic activity in the sample. The decrease directly correlates to the amount of purple color resulting from the solubilization of the purple formazan crystals.
Materials: • HCT116 1000 cells in 60 ul per well of 384 well plate (Greiner) • Medium: RPMI 1640, 2.5% FCS, glutamine, pen/strep. • Incubate 1 day at 37° C. […]

Row | Structure (SMILES) | IC50 [nM]
1 | CN(C(=O)c1coc(C=Cc2ccc3c(c2)OC(F)(F)O3)n1)c1ccc(CCCCn2ccnn2)cc1 [Example 30] | > 40
2 | Fc1cc(C(F)(F)F)ccc1C=Cc1nc(CNc2ccc(CCCCn3ccnn3)cc2)co1 [Example 24] | < 20
